Consider two molecules from PMC7793253, “CEP290 is essential for the initiation of ciliary transition zone assembly” (PLoS Biology, 2020).

Read-outs that look alike come from different tables or passages of the source. No constants are given. Whether binding was seen depends on the method and setting. Tags and fused reporters may be left off the sequences shown.

What all share (assay): pull-down; GST pull-down: purified His-tagged proteins incubated with GST, GST-DZIP1-N or GST-DZIP1-C in 25 mM Tris-HCl pH 7.4, 150 mM NaCl, 0.5% Triton X-100, 1 mM dithiothreitol, 10% glycerol, overnight at 4°C; blot with anti-His antibodies; both purified
The target in experiment [1] is T1, GST-DZIP1-N (aa 1–293) (Drosophila, UniProt Q9VC70 1-293).
T1 construct: Cloned into pGEX-4T-1; also called N-terminus of DZIP1; source: E. coli BL21 (DE3), purified (Glutathione Sepharose)
T1 sequence (looked up): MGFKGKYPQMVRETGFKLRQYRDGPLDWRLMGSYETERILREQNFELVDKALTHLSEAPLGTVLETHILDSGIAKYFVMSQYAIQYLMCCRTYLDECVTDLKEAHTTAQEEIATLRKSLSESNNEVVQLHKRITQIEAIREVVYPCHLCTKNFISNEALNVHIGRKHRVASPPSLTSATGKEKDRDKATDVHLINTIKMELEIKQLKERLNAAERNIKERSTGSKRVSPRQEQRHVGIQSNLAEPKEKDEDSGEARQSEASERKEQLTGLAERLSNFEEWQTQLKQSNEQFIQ

Experiment [2] deals with T2, GST-DZIP1-C (aa 294–737) (Drosophila, UniProt Q9VC70 294-737).
T2 construct: Cloned into pGEX-4T-1; also called C-terminus of DZIP1; source: E. coli BL21 (DE3), purified (Glutathione Sepharose)
T2 sequence (looked up): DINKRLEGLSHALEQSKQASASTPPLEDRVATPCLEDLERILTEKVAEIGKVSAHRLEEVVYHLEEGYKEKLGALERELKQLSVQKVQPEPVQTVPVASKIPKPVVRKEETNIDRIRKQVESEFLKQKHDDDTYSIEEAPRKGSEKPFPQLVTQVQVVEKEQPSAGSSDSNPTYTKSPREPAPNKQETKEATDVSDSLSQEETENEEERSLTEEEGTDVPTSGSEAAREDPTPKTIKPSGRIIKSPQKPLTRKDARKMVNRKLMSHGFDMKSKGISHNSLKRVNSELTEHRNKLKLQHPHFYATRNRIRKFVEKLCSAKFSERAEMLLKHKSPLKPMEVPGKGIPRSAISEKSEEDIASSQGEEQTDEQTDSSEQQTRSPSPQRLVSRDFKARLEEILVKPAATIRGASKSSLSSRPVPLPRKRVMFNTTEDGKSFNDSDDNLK

In experiment [3] the target is T2, GST-DZIP1-C (aa 294–737). This is another data set of the same source.

B1: His-CEP290-ΔN (aa 888–1978) (domain or fragment, UniProt Q9W0M1 888-1978)
chain: IHSQQRLLNEITDNHINLRHLVADLQSSSDEKLMLAKVQRDLDSVKAECSRLETEREKLQLKADCLQTQLEASELSLKQTQQDFQQERTNSDIKHKFLQHSLFMLKDKYAKFTPLVFLTNFVFAYQKFQRRLEEEQVQQRHRDHTALIDEVTAVVQAKIGLNEESSQQLVKLIKSETQTRLLEQRCEILQAKQEELVRELGELRMSQATDTEHWSTIQALFGEGEPRSQLKVDAETNTDAVAPNLAMRRAVQLIDRESSPIGSPLRKHPHLDTATQTLEAQVEFSETAVQTNGILSQQNQAVQTADAVEDNRRDSRAELQKMQETLQEANQRIEILGKQLEASRSESRESASPQGGVVEKTILSFHTLLLEKDQSIQKYQDLLQTERDQSQQALSKQVAENESLRATVNNLNFNIKTKDAEIQGLKEKLRQKPEVPVERNPSTDSRSSSSSDSSVNELTDEKIEELFESSSVERPPQEELEVPVEAGPENIVTEEPEGEEEKQDTEELKEVPTLHKQIKDLKDKLEYSERSLKTREEEVDILKEKLKLCQEREKSVESTVNPELDQLRIFLDEKDKHIKDLMDTLKNFHDDQQRYIKDTSNFSEDQIAKLAADLNRTEATNKIYHTQMEALRRQLANVTQREKQARDLSQSLRQQLLKRPVVSIKTELNARVKNENQLKRIQQLELDLDEARGQLQRQQTLLEAKRTRSANEVQLWEKQKRYQQQAEKTKARLEETELALEKTRALLQAARTTIARLEKDKQILESKLGRNGPPSNSSGGNNLKCCRTPSCPNLQHVGVSKFAPSPSESPETYTGPSSECSSPAHHHTQIFDQSQLDLIEALKSRIELQQRKIIAMELEGRGSNALTTELEKLQERCQAIEAQNIRLEARNLQLQLDSDLLRQGDSSDRLQKRIKHLEDYIMALKEEMARNESRRELGSGLKVSTNQGQSAEQTILSLRNLVEKLRSENKFLKDGRRSTESRSSMDSTPAEAARLQQQHAEALEKISALQQELQKRTTKCSQCGGRSKDAANEELKFIKEQLVKKTQLLQKAKVLLTRAAAKEKVLREQLALWKRKCSELQNVPVIDEISE
In the case of B1, the binding entry in experiment [1] and in experiment [2] was “no binding” in each case.

B2: His-Rab8 (natural protein, Drosophila, UniProt O18338 1-207, looked up)
chain: MAKTYDYLFKLLLIGDSGVGKTCILFRFSEDAFNTTFISTIGIDFKIRTIELDNKKIKLQIWDTAGQERFRTITTAYYRGAMGIMLVYDITQEKSFENIKNWIRNIEENASADVEKMLLGNKCELTDKRQVSKERGEQLAIEYGIKFMETSAKASINVEEAFLTLASDIKAKTEKRMEANNPPKGGHQLKPMDSRTKDSWLSRCSLL
notes: Drosophila Rab8; Cloned into pET28a; source: E. coli BL21 (DE3), purified (His resin)
Turning to B2, the binding result in experiment [3] is “no binding”.
